Results are given in words; binding and its absence hold for the method and conditions named. In cells and extracts the contact can be indirect. These calls come from enrichment with a bait or labelling near it, and not all partners need be listed.
Target: T1, osteomodulin (OMD), endogenous in human renal interstitial fibroblasts (human (endogenous in hRIFs)) (UniProt Q99983)
T1 sequence: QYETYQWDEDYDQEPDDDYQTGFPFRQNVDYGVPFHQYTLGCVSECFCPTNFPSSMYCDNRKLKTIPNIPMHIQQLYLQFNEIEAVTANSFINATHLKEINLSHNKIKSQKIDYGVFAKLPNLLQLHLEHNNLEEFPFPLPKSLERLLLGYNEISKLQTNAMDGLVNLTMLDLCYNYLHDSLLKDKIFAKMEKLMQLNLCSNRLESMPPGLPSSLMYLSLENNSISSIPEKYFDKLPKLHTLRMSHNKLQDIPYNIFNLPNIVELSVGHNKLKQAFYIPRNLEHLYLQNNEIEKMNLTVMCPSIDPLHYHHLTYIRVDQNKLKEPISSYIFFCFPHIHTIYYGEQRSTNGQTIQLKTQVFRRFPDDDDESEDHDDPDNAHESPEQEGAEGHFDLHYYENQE
Assay: affinity purification with mass spectrometry; anti-OMD or IgG (negative control) on magnetic protein A/G beads, whole cell lysate of hRIFs, 4 °C overnight; precipitates analysed by MALDI-TOF proteomics

Chains of the proteins cited; added tags and fusions are not shown. Lines headed by an entry give the natural chain unless they say otherwise; changes in a name come on top.
UniProt P12643: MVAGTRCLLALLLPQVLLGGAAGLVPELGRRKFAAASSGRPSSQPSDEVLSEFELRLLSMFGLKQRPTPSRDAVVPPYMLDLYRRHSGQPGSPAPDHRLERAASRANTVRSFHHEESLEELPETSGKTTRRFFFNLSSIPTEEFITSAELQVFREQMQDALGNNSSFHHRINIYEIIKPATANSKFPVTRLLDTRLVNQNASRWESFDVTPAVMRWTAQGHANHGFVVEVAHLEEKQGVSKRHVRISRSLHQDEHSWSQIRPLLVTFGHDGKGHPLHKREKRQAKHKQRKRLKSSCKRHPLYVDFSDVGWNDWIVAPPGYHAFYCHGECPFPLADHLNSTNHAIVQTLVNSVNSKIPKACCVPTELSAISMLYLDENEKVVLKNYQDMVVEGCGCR

binding: binds
Substance: bone morphogenetic protein 2 (BMP2), endogenous in human renal interstitial fibroblasts (from UniProt P12643)

Reference: publication PMC11516157
